The other results are listed elsewhere or left out. Repeats are few or missing, and single values can be far off.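 The apoptosis fraction was the count of cleaved-PARP antibody-stained nuclei relative to all DNA-stained nuclei, imaged in 1,536-well plates. Screening doses were set so most cells survived, and baseline and induced cleaved-PARP levels vary greatly across cell lines.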
Tests used:
Test in all cases: cleaved PARP positive nuclei fraction relative to DMSO control; melanoma cells; higher = more apoptosis
Details in all cases: library dose: low library concentration; 72 h
[1] = system: 501Mel
[2] = system: A101D
[3] = system: A2058
[4] = system: A375
[5] = system: C32
[6] = system: CBRC013 (line from a melanoma biopsy)
[7] = system: CBRC014 (line from a melanoma biopsy)
[8] = system: CBRC016 (line from a melanoma biopsy)
[9] = system: CBRC017 (line from a melanoma biopsy)
[10] = system: CBRC034 (line from a melanoma biopsy)
[11] = system: COLO792
[12] = system: COLO800
[13] = system: COLO829
[14] = system: G361
[15] = system: IPC-298
[16] = system: IST-MEL1
[17] = system: LB2518-MEL
[18] = system: LOXIMVI

| SMILES | cleaved PARP positive nuclei fraction [1] [%] | cleaved PARP positive nuclei fraction [2] [%] | cleaved PARP positive nuclei fraction [3] [%] | cleaved PARP positive nuclei fraction [4] [%] | cleaved PARP positive nuclei fraction [5] [%] | cleaved PARP positive nuclei fraction [6] [%] | cleaved PARP positive nuclei fraction [7] [%] | cleaved PARP positive nuclei fraction [8] [%] | cleaved PARP positive nuclei fraction [9] [%] | cleaved PARP positive nuclei fraction [10] [%] | cleaved PARP positive nuclei fraction [11] [%] | cleaved PARP positive nuclei fraction [12] [%] | cleaved PARP positive nuclei fraction [13] [%] | cleaved PARP positive nuclei fraction [14] [%] | cleaved PARP positive nuclei fraction [15] [%] | cleaved PARP positive nuclei fraction [16] [%] | cleaved PARP positive nuclei fraction [17] [%] | cleaved PARP positive nuclei fraction [18] [%] |
| --- | --- | --- | --- | --- | --- | --- | --- | --- | --- | --- | --- | --- | --- | --- | --- | --- | --- | --- |
| Cn1c(Nc2ccc(C(F)(F)F)cc2)nc2cc(Oc3ccnc(-c4ncc(C(F)(F)F)[nH]4)c3)ccc21 + CCCCCCCCCCCC1=C(O)C(=O)C=C(O)C1=O [Embelin] (first compound 0.08 µM, partner dose 1.2 µM) | 124 | 92 | 176 | 529 | 106 | 672 | 105 | 42 | 230 | 198 | 245 | 113 | 53.8 | 298 | 167 | 174 | 151 | 32.9 |
| CC1(C)NC(=O)N(c2ccc([N+](=O)[O-])c(C(F)(F)F)c2)C1=O [nilutamide] + O=S(=O)(c1ccccc1)N(CC(F)(F)F)c1ccc(C(O)(C(F)(F)F)C(F)(F)F)cc1 [T0901317] (first compound 1 µM, partner dose 1.4 µM) | 81.1 | 124 | 76.3 | 407 | 207 | 124 | 115 | 76 | 88.2 | 83.6 | 76.8 | 92.3 | 92.4 | 83.6 | 101 | 39.7 | 40.8 | 31.4 |
| C[C@]1(c2nc3c(C(N)=O)cccc3[nH]2)CCCN1 [Veliparib] + CCc1ccc(CCOc2ccc(CC3SC(=O)NC3=O)cc2)nc1 [pioglitazone] (first compound 1.4 µM, partner dose 2 µM) | 43.8 | 99.6 | 148 | 78.7 | 115 | 192 | 116 | 61.7 | 86.1 | 41.9 | 78.3 | 18.9 | 180 | 124 | 79.3 | 208 | 204 | 28.2 |
| C[C@@H]1CCN(C(=O)CC#N)C[C@@H]1N(C)c1ncnc2[nH]ccc12 + CCc1ccc(CCOc2ccc(CC3SC(=O)NC3=O)cc2)nc1 [pioglitazone] (first compound 1 µM, partner dose 2 µM) | 69.1 | 103 | 98.8 | 79.3 | 87.9 | 246 | 92.8 | 95.9 | 78.9 | 44.9 | 192 | 48 | 109 | 104 | 82.9 | 131 | 84.1 | 658 |
| Cc1cc(N2CCOCC2)cc2[nH]c(-c3c(NC[C@@H](O)c4cccc(Cl)c4)cc[nH]c3=O)nc12 + COc1ccc(-c2ccc3c(N4CCOCC4)nc(N4C[C@@H](C)O[C@@H](C)C4)nc3n2)cc1CO [KU0063794] (first compound 0.2 µM, partner dose 0.02 µM) | 82.6 | 65.1 | 174 | 226 | 73.3 | 86.2 | 102 | 67.5 | 75.4 | 80.4 | 158 | 197 | 55 | 107 | 106 | 153 | 87.3 | 132 |
| O=C(Nc1cccc(Cl)c1)Nc1ncc(CCNc2ncnc3ccsc23)s1 + COc1ccc(-c2ccc3c(N4CCOCC4)nc(N4C[C@@H](C)O[C@@H](C)C4)nc3n2)cc1CO [KU0063794] (first compound 0.0008 µM, partner dose 0.02 µM) | 81.1 | 101 | 95.6 | 274 | 156 | 176 | 104 | 84.3 | 82.5 | 61 | 175 | 219 | 71.3 | 101 | 87.3 | 114 | 81.5 | 41.4 |
| COc1cc(Nc2ncc(F)c(Nc3ccc4c(n3)NC(=O)C(C)(C)O4)n2)cc(OC)c1OC [Tamatinib] + COc1ccc(-c2ccc3c(N4CCOCC4)nc(N4C[C@@H](C)O[C@@H](C)C4)nc3n2)cc1CO [KU0063794] (first compound 0.4 µM, partner dose 0.02 µM) | 87.6 | 95.6 | 119 | 309 | 96.6 | 382 | 104 | 62.1 | 76.1 | 33.6 | 263 | 79.1 | 133 | 132 | 114 | 113 | 139 | 31.9 |
| C[C@@H]1CCN(C(=O)CC#N)C[C@@H]1N(C)c1ncnc2[nH]ccc12 + CCCCCCCCCCCC1=C(O)C(=O)C=C(O)C1=O [Embelin] (first compound 1 µM, partner dose 1.2 µM) | 106 | 105 | 87.3 | 444 | 192 | 44 | 96 | 36 | 88.3 | 187 | 130 | 119 | 62.6 | 124 | 267 | 54.2 | 94.4 | 155 |
| CO[C@@H]1[C@H](N(C)C(=O)c2ccccc2)C[C@H]2O[C@]1(C)n1c3ccccc3c3c4c(c5c6ccccc6n2c5c31)C(=O)NC4 [Midostaurin] + CCN(CC)CCCCNc1ncc2cc(-c3cc(OC)cc(OC)c3)c(NC(=O)NC(C)(C)C)nc2n1 [PD173074] (first compound 0.08 µM, partner dose 0.1 µM) | 45 | 182 | 149 | 169 | 112 | 28.5 | 93.2 | 124 | 71.2 | 230 | 113 | 82.8 | 53.1 | 69.8 | 56.5 | 146 | 39.6 | 83.8 |
| Cc1cc(N2CCOCC2)cc2[nH]c(-c3c(NC[C@@H](O)c4cccc(Cl)c4)cc[nH]c3=O)nc12 + COC(=O)c1sccc1S(=O)(=O)Nc1ccc(Nc2ccccc2)cc1OC [GSK0660] (first compound 0.2 µM, partner dose 1 µM) | 78.1 | 145 | 185 | 142 | 57.2 | 122 | 113 | 58.6 | 99 | 48.4 | 238 | 46.5 | 109 | 161 | 91.6 | 147 | 76 | 101 |
| O=C(CCCCCCC(=O)Nc1ccccc1)NO [vorinostat] + CCN(CC)CCCCNc1ncc2cc(-c3cc(OC)cc(OC)c3)c(NC(=O)NC(C)(C)C)nc2n1 [PD173074] (first compound 0.08 µM, partner dose 0.1 µM) | 56.7 | 143 | 88.3 | 63.7 | 118 | 81.7 | 111 | 45 | 89.6 | 97.6 | 120 | 90.9 | 39.4 | 33.1 | 54 | 30.6 | 150 | 94.2 |
| NC(=O)Nc1cc(-c2cccc(F)c2)sc1C(=O)N[C@H]1CCCNC1 + O=c1cc(-c2cccc3c2Sc2ccccc2S3)oc(N2CCOCC2)c1 [KU55933] (first compound 0.02 µM, partner dose 1 µM) | 69.8 | 114 | 110 | 140 | 186 | 212 | 106 | 33.4 | 91.3 | 88.5 | 64.4 | 159 | 116 | 146 | 305 | 63.9 | 64.9 | 26.6 |
| Cc1nc(Nc2ncc(C(=O)Nc3c(C)cccc3Cl)s2)cc(N2CCN(CCO)CC2)n1 [dasatanib] + O=C(O)C(=O)Nc1sc2c(c1C(=O)O)CCNC2 [TCS401] (first compound 0.004 µM, partner dose 1.66667 µM) | 74.4 | 136 | 36.3 | 81.9 | 105 | 138 | 103 | 169 | 64.4 | 262 | 73.8 | 246 | 146 | 139 | 58.4 | 125 | 113 | 127 |
| Cc1nc(Nc2ncc(C(=O)Nc3c(C)cccc3Cl)s2)cc(N2CCN(CCO)CC2)n1 [dasatanib] + N#Cc1c(O)c2c(-c3ccc(-c4ccccc4O)cc3)csc2[nH]c1=O [A769662] (first compound 0.004 µM, partner dose 2 µM) | 57.6 | 201 | 316 | 77.6 | 195 | 289 | 115 | 30.7 | 94.3 | 347 | 234 | 124 | 96.9 | 158 | 167 | 50 | 94.7 | 261 |
| Cc1cc(N2CCOCC2)cc2[nH]c(-c3c(NC[C@@H](O)c4cccc(Cl)c4)cc[nH]c3=O)nc12 + COc1cc(N2CCC(N3CCN(C)CC3)CC2)ccc1Nc1ncc(Cl)c(Nc2ccccc2S(=O)(=O)C(C)C)n1 [NVP-TAE684] (first compound 0.2 µM, partner dose 0.08 µM) | 286 | 117 | 44.5 | 535 | 157 | 154 | 104 | 118 | 82.8 | 63.3 | 121 | 131 | 71.2 | 191 | 117 | 234 | 43.7 | 99.1 |
| Nc1cccc2c1CN(C1CCC(=O)NC1=O)C2=O (configuration not stated) [lenalidomide] + COc1ccc(COc2ccc(Cc3cnc(N)nc3N)cc2OC)cc1 [GW2580] (first compound 1 µM, partner dose 1 µM) | 222 | 74.2 | 102 | 332 | 87.9 | 152 | 80.1 | 125 | 71.6 | 98.8 | 156 | 145 | 89.9 | 75.7 | 86.6 | 134 | 92.8 | 1390 |
| CC(C)(C)c1cnc(CSc2cnc(NC(=O)C3CCNCC3)s2)o1 + CCN(CC)CCCCNc1ncc2cc(-c3cc(OC)cc(OC)c3)c(NC(=O)NC(C)(C)C)nc2n1 [PD173074] (first compound 0.01 µM, partner dose 0.1 µM) | 98.2 | 44 | 47.7 | 84 | 126 | 199 | 95.4 | 62.3 | 73.3 | 32.8 | 94.2 | 190 | 44.7 | 119 | 108 | 111 | 82.5 | 24 |
| C[C@]1(c2nc3c(C(N)=O)cccc3[nH]2)CCCN1 [Veliparib] + COC(=O)c1sccc1S(=O)(=O)Nc1ccc(Nc2ccccc2)cc1OC [GSK0660] (first compound 1.4 µM, partner dose 1 µM) | 61.9 | 124 | 94.9 | 105 | 160 | 69.4 | 106 | 61.5 | 91.2 | 85.7 | 96.8 | 68 | 190 | 55.7 | 82.4 | 96.1 | 96.4 | 63.6 |
| O=C(Nc1cccc(Cl)c1)Nc1ncc(CCNc2ncnc3ccsc23)s1 + Cc1cc([N+](=O)[O-])ccc1NS(=O)(=O)c1cc(Cl)ccc1Cl [FH535] (first compound 0.0008 µM, partner dose 1 µM) | 123 | 325 | 290 | 48.8 | 68.2 | 224 | 150 | 2610 | 233 | 196 | 131 | 127 | 184 | 135 | 122 | 206 | 151 | 70.4 |

Single entries from the entries so far.
COc1cc(Nc2ncc(F)c(Nc3ccc4c(n3)NC(=O)C(C)(C)O4)n2)cc(OC)c1OC [Tamatinib] + COc1ccc(-c2ccc3c(N4CCOCC4)nc(N4C[C@@H](C)O[C@@H](C)C4)nc3n2)cc1CO [KU0063794] (first compound 0.4 µM, partner dose 0.02 µM) – cleaved PARP positive nuclei fraction [6] [%]: 382
Cc1cc(N2CCOCC2)cc2[nH]c(-c3c(NC[C@@H](O)c4cccc(Cl)c4)cc[nH]c3=O)nc12 + COc1cc(N2CCC(N3CCN(C)CC3)CC2)ccc1Nc1ncc(Cl)c(Nc2ccccc2S(=O)(=O)C(C)C)n1 [NVP-TAE684] (first compound 0.2 µM, partner dose 0.08 µM) – cleaved PARP positive nuclei fraction [4] [%]: 535

Reference: the supplement of paper PMC4604168 (melanoma cell lines)
